Measurements as given in PubChem BioAssay AID248 (DTP/NCI, 2004).
The list does not hold the whole screen: it gathers some chemical classes. Not every dose and run of a compound is shown. T/C gives the treated animals as a percentage of the vehicle group. Some entries give survivors of the animals treated and no T/C: the source files T/C as zero there, which appears to mark a toxic dose or a test without result, not a measured value. Counts of survivors are from the toxicity check (mostly the fifth day) where no day follows; animals may have died later. Schedule codes are those of the source, read here as Q, the interval in days (D) or hours (H), X, the number of doses. For survival time, this PubChem deposit counts one and a half times the control or more as active, and values a quarter to a half above the control carry no call in these data; other NCI protocols may use other cut-offs. Some entries were tested several times; the values are given in rising order. Some schedules carry Z or #; the key to these is not given. Some T/C values carry the count of animals alive at the toxicity check (mostly the fifth day); without a count or a note in brackets, all were alive then.

System: L1210 leukemia ip in BDF1 mice, survival T/C
Test: NCI In Vivo Anticancer Drug Screen. Data for tumor model L1210 Leukemia (intraperitoneal) in B6D2F1 (BDF1) mice
Conditions: T/C endpoint: mean survival time, higher T/C = longer survival

NC(=O)c1[nH]cnc1/N=N\N(CCCl)CCCl
T/C (dose: 180.0 mg/kg/injection, schedule: Q04DX Z (ip), vehicle: carboxymethylcellulose (CMC)): 248 and 410 % of control
T/C (dose: 180.0 mg/kg/injection, schedule: Q04DX Z (sc), vehicle: carboxymethylcellulose (CMC)): 190 % of control
T/C (dose: 180.0 mg/kg/injection, schedule: Q08DX002 (ip), vehicle: carboxymethylcellulose (CMC)): 221 and 329 % of control
T/C (dose: 180.0 mg/kg/injection, schedule: Q08DX003 (ip), vehicle: carboxymethylcellulose (CMC)): 460 % of control
T/C (dose: 180.0 mg/kg/injection, schedule: Q08DX Z (ip), vehicle: carboxymethylcellulose (CMC)): 438 and 530 % of control
T/C (dose: 187.0 mg/kg/injection, schedule: Q01DX001 (ip), vehicle: carboxymethylcellulose (CMC)): 189 % of control
T/C (dose: 192.1 mg/kg/injection, schedule: Q01DX001 (ip), vehicle: steroid suspending solution): 483 % of control
T/C (dose: 200.0 mg/kg/injection, schedule: Q01DX001 (ip), vehicle: carboxymethylcellulose (CMC)): 133, 162, 175, 180, 225, 264 % of control
T/C (dose: 200.0 mg/kg/injection, schedule: Q01DX001 (ip), vehicle: saline): 217 and 228 % of control
T/C (dose: 200.0 mg/kg/injection, schedule: Q01DX001 (ip), vehicle: steroid suspending solution, evaluated on day 6): 217 % of control
T/C (dose: 200.0 mg/kg/injection, schedule: Q01DX001 (ip), vehicle: steroid suspending solution, evaluated on day 28): 186 % of control
T/C (dose: 200.0 mg/kg/injection, schedule: Q01DX001 (ip), vehicle: steroid suspending solution, evaluated on day 60): 154, 188, 217, 411, 437 % of control
T/C (dose: 200.0 mg/kg/injection, schedule: Q01DX001 (ip), vehicle: water): 369, 409, 621, 642 % of control
T/C (dose: 200.0 mg/kg/injection, schedule: Q01DX001 (iv), vehicle: water): 213, 301, 457 % of control
T/C (dose: 200.0 mg/kg/injection, schedule: Q01DX005 (ip), vehicle: carboxymethylcellulose (CMC)): 308 and 344 % of control
T/C (dose: 200.0 mg/kg/injection, schedule: Q01DX009 (ip), vehicle: carboxymethylcellulose (CMC)): 150 % of control
T/C (dose: 200.0 mg/kg/injection, schedule: Q01DX009 (ip), vehicle: water): 104 % of control [7 of 8 alive]
T/C (dose: 200.0 mg/kg/injection, schedule: Q01DX009 (oral), vehicle: carboxymethylcellulose (CMC)): 127 % of control
T/C (dose: 200.0 mg/kg/injection, schedule: Q01DX017 (ip), vehicle: carboxymethylcellulose (CMC)): 163 % of control
T/C (dose: 200.0 mg/kg/injection, schedule: Q01DX Z (oral), vehicle: carboxymethylcellulose (CMC)): 121 % of control
T/C (dose: 200.0 mg/kg/injection, schedule: Q02DX009 (ip), vehicle: carboxymethylcellulose (CMC)): 127 and 188 % of control
T/C (dose: 200.0 mg/kg/injection, schedule: Q03HX003 (ip), vehicle: carboxymethylcellulose (CMC)): 292 % of control
T/C (dose: 200.0 mg/kg/injection, schedule: Q04DX002 (ip), vehicle: water): 188 [2 of 3 alive] and 270 % of control
T/C (dose: 200.0 mg/kg/injection, schedule: Q04DX003 (ip), vehicle: carboxymethylcellulose (CMC)): 317 % of control
T/C (dose: 200.0 mg/kg/injection, schedule: Q04DX003 (ip), vehicle: water): 521 % of control
T/C (dose: 200.0 mg/kg/injection, schedule: Q04DX003 (oral), vehicle: carboxymethylcellulose (CMC)): 205 % of control
T/C (dose: 200.0 mg/kg/injection, schedule: Q04DX005 (ip), vehicle: carboxymethylcellulose (CMC)): 308, 353, 385 % of control
T/C (dose: 200.0 mg/kg/injection, schedule: Q04DX Z (oral), vehicle: carboxymethylcellulose (CMC)): 278 % of control
T/C (dose: 200.0 mg/kg/injection, schedule: Q08DX002 (ip), vehicle: carboxymethylcellulose (CMC)): 271 % of control
T/C (dose: 200.0 mg/kg/injection, schedule: Q08DX002 (ip), vehicle: water): 548 % of control
T/C (dose: 200.0 mg/kg/injection, schedule: Q08DX002 (oral), vehicle: carboxymethylcellulose (CMC)): 169 % of control
T/C (dose: 200.0 mg/kg/injection, schedule: Q08DX003 (ip), vehicle: carboxymethylcellulose (CMC)): 377 % of control
T/C (dose: 200.0 mg/kg/injection, schedule: Q08DX Z (oral), vehicle: carboxymethylcellulose (CMC)): 238 % of control
T/C (dose: 200.0 mg/kg/injection, schedule: Q## X001 (ip), vehicle: carboxymethylcellulose (CMC)): 329 % of control
T/C (dose: 200.0 mg/kg/injection, schedule: Q## X003 (ip), vehicle: carboxymethylcellulose (CMC)): 493 % of control
T/C (dose: 200.0 mg/kg/injection, schedule: Q## X005 (ip), vehicle: carboxymethylcellulose (CMC)): 427 % of control
T/C (dose: 212.0 mg/kg/injection, schedule: Q01DX001 (ip), vehicle: other): 181, 193, 218 % of control
T/C (dose: 216.0 mg/kg/injection, schedule: Q01DX001 (ip), vehicle: other): 103 % of control
T/C (dose: 216.0 mg/kg/injection, schedule: Q01DX001 (ip), vehicle: steroid suspending solution): 104 % of control
T/C (dose: 225.0 mg/kg/injection, schedule: Q03DX Z (ip), vehicle: carboxymethylcellulose (CMC)): 228 % of control
T/C (dose: 230.0 mg/kg/injection, schedule: Q01DX001 (ip), vehicle: carboxymethylcellulose (CMC)): 189, 232, 325 % of control
T/C (dose: 230.0 mg/kg/injection, schedule: Q07DX Z (ip), vehicle: carboxymethylcellulose (CMC)): 339 and 357 % of control
T/C (dose: 250.0 mg/kg/injection, schedule: Q01DX001 (ip), vehicle: carboxymethylcellulose (CMC)): 214, 235, 236, 254, 279 % of control
T/C (dose: 250.0 mg/kg/injection, schedule: Q12HX004 (ip), vehicle: carboxymethylcellulose (CMC)): 578 % of control
T/C (dose: 250.0 mg/kg/injection, schedule: Q## X001 (ip), vehicle: carboxymethylcellulose (CMC)): 305 % of control
survivor count (dose: 252.0 mg/kg/injection, schedule: Q01DX006 (iv), vehicle: carboxymethylcellulose (CMC)): 0 of 6
T/C (dose: 252.0 mg/kg/injection, schedule: Q01DX Z (im), vehicle: carboxymethylcellulose (CMC)): 121 and 148 % of control
T/C (dose: 252.0 mg/kg/injection, schedule: Q01DX Z (ip), vehicle: carboxymethylcellulose (CMC)): 95 % of control
T/C (dose: 252.0 mg/kg/injection, schedule: Q01DX Z (oral), vehicle: carboxymethylcellulose (CMC)): 125 % of control
T/C (dose: 252.0 mg/kg/injection, schedule: Q01DX Z (sc), vehicle: carboxymethylcellulose (CMC)): 123 and 127 % of control [5 of 6 alive]
T/C (dose: 266.0 mg/kg/injection, schedule: Q01DX001 (ip), vehicle: clinical formulation): 96 and 250 % of control
T/C (dose: 274.4 mg/kg/injection, schedule: Q01DX001 (ip), vehicle: steroid suspending solution): 395 % of control
T/C (dose: 300.0 mg/kg/injection, schedule: Q01DX001 (ip), vehicle: carboxymethylcellulose (CMC)): 231, 240, 274, 300, 309, 490 % of control
T/C (dose: 300.0 mg/kg/injection, schedule: Q01DX001 (oral), vehicle: carboxymethylcellulose (CMC)): 147 % of control
T/C (dose: 300.0 mg/kg/injection, schedule: Q01DX005 (oral), vehicle: carboxymethylcellulose (CMC)): 147 % of control
T/C (dose: 300.0 mg/kg/injection, schedule: Q01DX017 (oral), vehicle: steroid suspending solution): 107 [7 of 8 alive] and 134 % of control [7 of 8 alive]
T/C (dose: 300.0 mg/kg/injection, schedule: Q01DX Z (sc), vehicle: carboxymethylcellulose (CMC)): 209 % of control
T/C (dose: 300.0 mg/kg/injection, schedule: Q03HX008 (oral), vehicle: carboxymethylcellulose (CMC)): 121 % of control
T/C (dose: 300.0 mg/kg/injection, schedule: Q04DX003 (ip), vehicle: carboxymethylcellulose (CMC)): 336 % of control
T/C (dose: 300.0 mg/kg/injection, schedule: Q04DX004 (ip), vehicle: other): 161 % of control
T/C (dose: 300.0 mg/kg/injection, schedule: Q04DX005 (ip), vehicle: carboxymethylcellulose (CMC)): 385 % of control
T/C (dose: 300.0 mg/kg/injection, schedule: Q04DX005 (oral), vehicle: carboxymethylcellulose (CMC)): 247 % of control
